Test system: plasma components
Test: FPLC overall area under the curve in human plasma
Format: binding
Conditions: 100 µM in 10% human plasma, absorbance 700 nm; for overall area under the curve (AUC) of FPLC plots: 37°C 30 min

Row | Molecule | overall area under the curve (AUC) of FPLC plots | overall FPLC AUC, fold lower than that of C12 | FPLC AUC value, fold lower than C16
1 | GGGHGDCDD [C16] | 368.1 ± 78.7 |  | 
2 | CC1(C)C(/C=C/C=C/C=C/C=C2\N(CCCCS(=O)(=O)O)c3ccc4ccccc4c3C2(C)C)=[N+](CCCCS(=O)(=O)[O-])c2ccc3ccccc3c21 [ICG, indocyanine green, reference compound] |  | 18.5 fold | 
3 | GGGHGDCDD [C18] | 242.4 ± 10.8 |  | 1.5 fold
4 | GGGHGDCDD [C12] | 198.0 ± 27.6 |  | 

From paper doi:10.1101/2025.11.18.689169v1 (bioRxiv, 2025)
